## Primary screen of a compound library

The chains behind the UniProt entries cited, without tags or fusion partners.
UniProt E9BF75, entry or part of it: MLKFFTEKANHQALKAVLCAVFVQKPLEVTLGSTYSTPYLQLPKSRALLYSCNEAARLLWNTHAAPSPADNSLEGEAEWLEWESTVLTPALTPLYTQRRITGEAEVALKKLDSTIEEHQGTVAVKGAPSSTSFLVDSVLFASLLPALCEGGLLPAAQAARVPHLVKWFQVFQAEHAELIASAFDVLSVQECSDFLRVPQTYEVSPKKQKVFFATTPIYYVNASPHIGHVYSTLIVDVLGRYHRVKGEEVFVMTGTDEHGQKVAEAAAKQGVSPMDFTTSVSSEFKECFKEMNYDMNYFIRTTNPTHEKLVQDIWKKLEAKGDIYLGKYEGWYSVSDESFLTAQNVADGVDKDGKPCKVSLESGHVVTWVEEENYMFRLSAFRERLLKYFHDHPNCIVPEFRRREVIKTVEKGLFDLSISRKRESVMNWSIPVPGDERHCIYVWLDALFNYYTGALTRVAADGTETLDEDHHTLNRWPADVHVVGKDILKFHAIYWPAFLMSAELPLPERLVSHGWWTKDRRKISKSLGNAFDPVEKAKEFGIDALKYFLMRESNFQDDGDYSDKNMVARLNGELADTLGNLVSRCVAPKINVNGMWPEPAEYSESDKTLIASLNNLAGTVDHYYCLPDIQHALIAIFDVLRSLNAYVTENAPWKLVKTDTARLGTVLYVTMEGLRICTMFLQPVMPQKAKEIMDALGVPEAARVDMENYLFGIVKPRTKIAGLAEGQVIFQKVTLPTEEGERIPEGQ

Source: ChEMBL document CHEMBL3988442, “University of Dundee, Small-Polar-MMV Screening Library” (2021).

Results are percentages, as filed.
The controls that fix the scale are not given in the record; negative values are as filed.
The compounds are a random part of those screened.

Mtb heat-shock: 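Assay on Mycobacterium tuberculosis, filed only as a heat shock assay from Cornell; the read-out is not stated. The concentration is filed as 10 mM, unlikely as a test dose, so the dose is not known. Higher reads as stronger inhibition (inferred: compounds with an IC50 in retests scored well above the rest). Size under these conditions: about 69,000 compounds, about 930 of them at 50% or above in at least one test.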
LdMetRS: 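Methionyl-tRNA synthetase (putative), Leishmania donovani (UniProt E9BF75). Primary screen of methionyl-tRNA synthetase; the read-out is not stated. The test concentration is not given. The values are filed as inhibition. About 68,000 compounds were tested under these conditions; 0.035% (about 24) showed 50% or more at least once.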
Mtb growth Cornell: 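Whole-cell assay for inhibitors of Mycobacterium tuberculosis growth, labelled Cornell in the record; the read-out is not stated. The concentration is filed as 10 mM, unlikely as a test dose, so the dose is not known. The record gives no direction; compounds strong in two other growth screens of this library score well above the rest, so higher reads as stronger inhibition. Of about 53,000 compounds tested this way, about 900 (1.7%) reached 50% or more in at least one test.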

c1cnn(CC2CN(c3ncnc4sccc34)CCO2)c1 (configuration not stated) gave Mtb heat-shock: 16.92%; LdMetRS: 22.86%; Mtb growth Cornell: 39.02%.
O=C(c1cscn1)N1CCc2[nH]nc(Nc3ccccc3)c2C1 gave Mtb heat-shock: -0.59%; LdMetRS: 13.95%; Mtb growth Cornell: 29.2%.
CCn1ncc2c1C(COC)N(C(=O)c1cscn1)CC2 (configuration not stated) gave LdMetRS: 2.584%.
Cc1ccsc1[C@@H]1CCN(C(=O)CCc2nc3ccccc3[nH]2)C[C@H]1O gave Mtb heat-shock: -24.63%; LdMetRS: 9.677%; Mtb growth Cornell: 1.78%.
CCc1ccc(CN2CCN(c3ccc(Cl)nn3)CC2)nc1 gave Mtb heat-shock: 15.06%; LdMetRS: 12.73%; Mtb growth Cornell: 44.3%.
O=C(O)C(F)(F)F.[H][C@@]12CCN(Cc3nccs3)[C@]1([H])CC[C@H](C(=O)N1CCOCC1)O2 gave Mtb heat-shock: -12.98%; Mtb growth Cornell: 0.1538%.
O=C(O)C(F)(F)F.O=C(O)C(F)(F)F.[H][C@]12CCN(c3cccc(C)n3)C[C@@]1([H])OCCN(Cc1csc(C)n1)C2 gave Mtb heat-shock: 0.6781%; Mtb growth Cornell: 3.129%.
Cc1noc(C2CCN(C(=O)c3c(C)noc3C)CC2)n1 gave Mtb heat-shock: -29.05%; LdMetRS: 10.04%; Mtb growth Cornell: 13.13%.
Cc1ccc(S(=O)(=O)N2CCN(CCCn3ccnc3)CC2)cc1 gave Mtb heat-shock: 15.57%; LdMetRS: 6.406%.
CN(CCc1ccncc1)C1CCCN(Cc2noc(C3CC3)n2)C1 (configuration not stated) gave Mtb heat-shock: 20.07%; LdMetRS: 14.08%; Mtb growth Cornell: -8.948%.
O=C(O)CCc1cc2n(n1)CCCN(C(=O)c1ccc(F)cc1F)C2 gave Mtb heat-shock: -1.291%; LdMetRS: 14.05%; Mtb growth Cornell: 17.64%.
CCCC1CN(CCOC)C(=O)c2cccnc2O1 (configuration not stated) gave Mtb heat-shock: 42.58%; LdMetRS: 13.97%; Mtb growth Cornell: -10.16%.
CCN(CC)c1nc2ccsc2c(=O)n1CCC(=O)NCc1ccco1 gave Mtb heat-shock: -24.11%; LdMetRS: 4.665%; Mtb growth Cornell: -3.575%.
COc1ccc(C(=O)N(Cc2cnn(C)c2)C(C)C)cc1Br gave Mtb heat-shock: 8.033%; LdMetRS: 6.299%; Mtb growth Cornell: 6.645%.
CN(C)Cc1cc(C2CCN(C(=O)C3CC34CCC4)CC2)nn1C.Cl (configuration not stated) gave Mtb heat-shock: -10.56%; Mtb growth Cornell: 27.72%.
Cc1cccc(C(=O)N2CC(C(=O)NCC3CC3)C3(CCOCC3)C2)n1.O=C(O)C(F)(F)F (configuration not stated) gave Mtb heat-shock: -19.02%; Mtb growth Cornell: -37.46%.
CN(C(=O)c1ccccc1Cl)C1CCN(c2ccccn2)CC1 gave Mtb heat-shock: -14.19%; LdMetRS: 19.44%.
CC1(C(=O)NCc2cccnc2Oc2ccc(F)c(F)c2)CCCNC1 (configuration not stated) gave Mtb heat-shock: 16.55%; LdMetRS: 2.978%; Mtb growth Cornell: -12.97%.
CC(C)OCCCNC(=O)CN1CCN(c2nccs2)CC1 gave Mtb heat-shock: -29.86%; LdMetRS: 9.214%; Mtb growth Cornell: 4.56%.
COc1cc(OC)cc(-c2cccc3c2OC(CN)C3)c1 (configuration not stated) gave Mtb heat-shock: 5.141%; LdMetRS: 18.82%.
CN(C)C(=O)CN1CCC2(CCCN(c3ncc(F)cn3)C2)C1=O (configuration not stated) gave Mtb heat-shock: -20.65%; LdMetRS: 3.141%; Mtb growth Cornell: -56.64%.
C[C@@H]1CN(CC(=O)NCc2ccccn2)C[C@]1(C)O gave Mtb heat-shock: 1.605%; LdMetRS: 2.521%.
COc1cc(C(=O)Nc2nc(C)no2)ccc1C gave Mtb heat-shock: 106.9%; LdMetRS: 11.74%; Mtb growth Cornell: 102.2%.
CN(C1CCN(c2ccccn2)CC1)S(=O)(=O)c1cccs1 gave Mtb heat-shock: 14.42%; LdMetRS: 16.48%; Mtb growth Cornell: 23.19%.
CNC(=O)NC(=O)C(C)N1CCN(c2ccc(C#N)cc2F)CC1 (configuration not stated) gave Mtb heat-shock: 16.48%; LdMetRS: 14.37%; Mtb growth Cornell: 0.03934%.
CC(C)CCN1CCN(C(=O)c2cccnc2-n2cncn2)CC1 gave Mtb heat-shock: -16.39%; LdMetRS: 9.783%; Mtb growth Cornell: 4.825%.
CCc1nccn1CCC(=O)N1CCOC(c2ccc(F)cc2)C1 (configuration not stated) gave Mtb heat-shock: 5.944%; LdMetRS: 10.13%; Mtb growth Cornell: 9.01%.
O=C(c1ccc2nccn2c1)N1CCCC1c1noc(C2CC2)n1 (configuration not stated) gave Mtb heat-shock: 15.72%; LdMetRS: 7.229%; Mtb growth Cornell: 14.15%.
CC(C)C[C@H](NC(=O)CNC(=O)OC(C)(C)C)C(=O)OC(C)(C)C gave Mtb heat-shock: -8.625%; LdMetRS: 15.14%; Mtb growth Cornell: 16.49%.
Cc1cnc(C(=O)N2CCC3(CCN(Cc4ccccn4)C3=O)C2)cn1 (configuration not stated) gave LdMetRS: 20.25%.
COCc1nnn2c1CN(C(=O)c1c[nH]cn1)CCC2 gave Mtb heat-shock: 3.832%; LdMetRS: 12.89%; Mtb growth Cornell: -6.529%.
CCC(=O)NS(=O)(=O)c1cccnc1Nc1cccc(Cl)c1Cl gave Mtb heat-shock: -12.36%; LdMetRS: 5.789%; Mtb growth Cornell: 17.96%.
Cc1cnc(C(=O)N2CCCC(Cn3cc(C4CC4)nn3)C2)cn1 (configuration not stated) gave Mtb heat-shock: 15.5%; LdMetRS: 9.059%; Mtb growth Cornell: 8.873%.
O=C(CC1CC1)N1CCC2(CCCN(CCOc3ccccc3)C2)C1 (configuration not stated) gave LdMetRS: 10.58%.
O=S(=O)(CC1CCOCC1)NCc1ccnc(O)c1 gave Mtb heat-shock: -23.19%; LdMetRS: -1.381%.

2 of the entries, repeated:

compound	Mtb heat-shock	LdMetRS	Mtb growth Cornell
CN(CCc1ccncc1)C1CCCN(Cc2noc(C3CC3)n2)C1 (configuration not stated)	20.07%	14.08%	-8.948%
O=C(c1ccc2nccn2c1)N1CCCC1c1noc(C2CC2)n1 (configuration not stated)	15.72%	7.229%	14.15%